# Library screen at single concentrations

Chains of the proteins cited; added tags and fusions are not shown. Residues count along the entry.
UniProt A4I591, 1-473: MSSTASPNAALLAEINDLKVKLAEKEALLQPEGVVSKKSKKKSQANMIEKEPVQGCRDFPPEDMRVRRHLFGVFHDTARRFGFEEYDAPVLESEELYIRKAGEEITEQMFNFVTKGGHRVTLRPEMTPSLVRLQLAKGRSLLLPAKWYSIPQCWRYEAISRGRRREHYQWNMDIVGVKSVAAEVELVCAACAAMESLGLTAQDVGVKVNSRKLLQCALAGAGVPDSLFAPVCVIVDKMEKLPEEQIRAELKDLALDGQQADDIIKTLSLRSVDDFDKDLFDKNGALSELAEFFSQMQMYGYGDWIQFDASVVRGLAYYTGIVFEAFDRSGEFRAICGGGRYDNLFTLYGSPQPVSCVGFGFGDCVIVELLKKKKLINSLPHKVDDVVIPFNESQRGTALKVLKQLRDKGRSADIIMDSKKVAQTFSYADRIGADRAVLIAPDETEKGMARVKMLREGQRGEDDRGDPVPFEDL

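Histidine-tRNA ligase, Leishmania infantum (UniProt A4I591). Enzyme assay of histidyl-tRNA synthetase; the read-out is not stated. Compounds at 30 µM. Direction is inferred from retests: higher values go with stronger inhibition. The assay is labelled LdHisRS but filed under L. infantum. About 69,000 compounds were tested under these conditions; 0.6% (about 410) showed 50% or more at least once.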

Results are given as percent effect.
The record does not define 0% and 100%; most values in the screen are far below 50% and negative numbers occur (in some assays of this library far below -100).
Compounds were drawn at random from those tested, without regard to their results.

| SMILES | effect |
|---|---|
| `Cc1ccc2c(c1)CN(CC(=O)NCCc1ccc(F)cc1)CC(C)O2` (stereo not shown) | 10 |
| `O=C(Cc1csc(-c2cccc(Cl)c2)n1)NCc1cccc(C(=O)O)c1` | 17.39 |
| `CN(CCc1ccccn1)Cc1nccn1Cc1ccccc1` | 21.88 |
| `Cc1nc(CN2CCCC3(CCN(c4cnn(C)c4)C3=O)C2)cs1` (stereo not shown) | 15.28 |
| `Cc1ccc(OCC(=O)NCC(C)C)nc1` | 15.24 |
| `CC(C)(N)CN1CCC(c2nnc(CN3CCCC3)n2C2CC2)CC1` | 20.39 |
| `CN1CC(c2ccccc2)CC12CCN(C(=O)c1cccnc1)CC2` (stereo not shown) | 22.22 |
| `CCn1cnnc1C1CCN(C(=O)c2cc(C)n(CC)c2C)CC1` | 8.696 |
| `COc1ncc(C(=O)N2CCCC3(C=Cc4ccccc4O3)CC2)cn1` (stereo not shown) | 6.25 |
| `Cc1ccc(CCNC(=O)NCc2cccc(OC(F)F)c2)cn1` | 16.67 |
| `O=C(CN(Cc1cccs1)C1CCS(=O)(=O)C1)NCC1CCCCC1` (stereo not shown) | 29.58 |
| `O=C(CCN1C[C@@H]2CC[C@H]1C2)N1CCN(c2cccc(Cl)c2)C(=O)C1` | 4.196 |
| `CC(C)N1CCc2c(c(COc3cccnc3)nn2CC2CC2)C1` | 3.509 |
| `CC(=O)N1[C@H](CN(C)C)C[C@@H]2CN(C(=O)c3cccc(F)c3)CC[C@@H]21` | -26.83 |
| `COc1ccc(CCNC(=O)N2CCCC(c3nncn3C)C2)cc1` (stereo not shown) | 7.692 |
| `COc1ccc(SC(C)C(=O)N2CCC(C(N)=O)CC2)cc1` (stereo not shown) | 0 |
| `CC1CCCN(Cc2cccc(C(=O)Nc3nccs3)c2)C1` (stereo not shown) | 24.1 |
| `CCC(CC)(CNC(=O)OC(C)(C)C)NC(=O)c1cnccn1` | 14.29 |
| `Cn1ncc2ccc(C3CCCN(C(=O)Cc4cccs4)C3)nc21` (stereo not shown) | 14.39 |
| `COc1cc(C2CC(=O)Oc3cc(C)[nH]c(=O)c32)ccc1O` (stereo not shown) | 20.51 |
| `COc1ccc(F)cc1CN(CC(N)=O)C(C)C` | 8.29 |
| `COCCN1CCO[C@H]2CN(Cc3cccc(C)n3)C[C@H]21` | 19.8 |
| `Cc1cccc(C(C(=O)NCc2nc(-c3cccnc3)no2)N(C)C)c1` (stereo not shown) | 18.31 |
| `C[C@@H]1CN(C2(C(=O)N3CCSCC3)Cc3ccccc3C2)C[C@H](C)O1` | 9.589 |
| `C[C@@H]1CN(C(=O)C2CCS(=O)(=O)CC2)C[C@@]1(O)C1CC1` | 6.452 |
| `O=C(c1cccc(N2CCCC2=O)c1)N1CCCC(n2cccn2)C1` (stereo not shown) | 13.89 |
| `COCC1CN(S(=O)(=O)Cc2ccc(C)cc2)Cc2c1cnn2C` (stereo not shown) | 6.897 |
| `CCn1c(Cn2cncn2)nnc1C1CCN(CCN)CC1` | 2.564 |
| `CC(C)NC(=O)N1C[C@@H](F)[C@@H](OCc2nc3ccccc3o2)C1` | 20.27 |
| `O=S(=O)(CCNCc1cccc2c1OCCO2)N1CCOCC1` | 9.615 |
| `O=c1[nH]c(-c2ccccn2)nc2c1CCN(S(=O)(=O)N1CCCC1)C2` | 8.602 |
| `CCc1cc(-c2cc[nH]n2)nc(N2CCCC2)n1` | 8.197 |
| `COCCN(Cc1ccccn1)C(=O)CC1OCCc2ccccc21` (stereo not shown) | 5.128 |
| `Cc1cccc(CN2CCC(c3nccn3CC(N)=O)CC2)n1` | 10.99 |
| `CCn1cnnc1C1CCN(C(=O)CC(C)n2cccc2)CC1` (stereo not shown) | 12.5 |
| `CN(C)C(=O)CN1C[C@H]2CN(Cc3cccc(F)c3)C(=O)[C@H]2C1` | 11.93 |
| `COC[C@]12COC[C@H]1CN(C(=O)C1CC(F)(F)C1)C2` | 10 |
| `Cc1oc(C(=O)O)cc1S(=O)(=O)Nc1cccc(-n2nccc2C)c1` | 24.66 |
| `CC(C)n1cc(CN2CCCN(C(=O)c3ccco3)CC2)cn1` | 14.52 |
| `O=C(CCn1ccc2ccccc21)N1CCN(Cc2cccnc2)CC1` | 11.29 |
| `CCN(Cc1ccccc1)S(=O)(=O)C1CCS(=O)(=O)CC1` | 19.35 |
| `CCCNC(=O)c1nn(CC)cc1Cl` | 6.897 |
| `CS(=O)(=O)Cc1nc(C2CC2)nn1-c1ccccn1` | 9.859 |
| `CC(C)CN1CCC2(CCN(C(=O)c3ccc(F)cc3)CC2)C1=O` | 31.71 |
| `Cn1cc(CN2CCCC3(CCN(Cc4ccncc4)C3=O)C2)cn1` (stereo not shown) | 6.944 |
| `Cc1nn(CCNS(=O)(=O)c2ccccc2)c(C)c1Cl` | 18.18 |
| `CN1CCN([C@H]2CCN(C(=O)c3nn(C)cc3Cl)C[C@H]2CCCO)CC1` | 11.67 |
| `COc1ccc(C)cc1-n1cnnc1C1CCOCC1` | 14.53 |
| `CCSc1ccccc1C(=O)N1CCC(S(=O)(=O)c2nncn2C)CC1` | 0.8547 |
| `Cc1ccc2[nH]c(CN3CC[C@@H](N4CCN(C)CC4)[C@H](O)C3)c(C)c2c1` | 7.692 |
| `Cc1noc(C(C)N2CCN(CCC(=O)N3CCOCC3)CC2)n1` (stereo not shown) | 15.73 |
| `O=C1CN(C(=O)[C@H]2CC[C@]3(CC2)CNC(=O)c2ccccc2O3)CCN1` | 10.34 |
| `CC(NC(N)=O)C(=O)N(C)CCCc1cc(-c2ccccc2)no1` (stereo not shown) | 9.231 |
| `Cc1cc(CC(=O)NC2CCCN(c3ccccc3F)C2=O)n[nH]1` (stereo not shown) | 8.434 |
| `CCO[C@@H]1CC[C@H]2[C@H]1OCCN2CC1CCC1` | 7.407 |
| `CC(C)(C)c1nnc(CN2CCN(C(=O)N3CCCCC3)CC2)o1` | 23.29 |
| `CCCc1nnc(N2CCN(c3ccccc3OCC)CC2)o1` | 13.83 |
| `CS(=O)(=O)N1CC(c2nc(N)ncc2-c2ccc(F)cc2)C1` | 22.7 |
| `CCN(Cc1nc2c(cnn2C)c(=O)[nH]1)c1cccc(F)c1` | 16.22 |
| `CC(C)C(C(=O)N1CCN(Cc2cscn2)CC1)n1cncn1` (stereo not shown) | 15.29 |
| `CCS(=O)(=O)N1CCc2ccc(NC(=O)NCCc3ccccc3)cc21` | 11.24 |
| `CC(C)n1c(C2CCCN(Cc3ccnn3C)C2)nc2ccccc21` (stereo not shown) | 10.95 |
| `Cc1cc(C[C@@H]2COC[C@H]2NCc2ccc(Br)s2)on1` | -2.778 |
| `COc1ccc(CC(=O)N(C)c2cccnc2N(C)C)c(Cl)c1` | 57.14 |
| `CCn1cc(CN(C)Cc2cnn(-c3ccc(F)cc3)c2)cn1` | -21.67 |
| `CSCCC(CO)NC(=O)c1sc(-c2ccccc2Cl)nc1C` (stereo not shown) | 11.65 |
| `COc1ccc(NC(=O)NCCCn2nc3ccccn3c2=O)cc1` | 13.16 |
| `CCCC(C)(C)NC(=O)c1cnc(C)s1` | 12.61 |
| `OCC1(O)CCCN(Cc2ccccc2OCCc2ccccc2)CC1` (stereo not shown) | 17.95 |
| `COc1ccc(OCC2CCCN(c3nc(CO)cs3)C2)cc1` (stereo not shown) | 9.574 |

For reference, 6 entries once more:

* Cc1cc(C[C@@H]2COC[C@H]2NCc2ccc(Br)s2)on1 : -2.778%
* CC(C)C(C(=O)N1CCN(Cc2cscn2)CC1)n1cncn1 (stereo not shown) : 15.29%
* CC(C)N1CCc2c(c(COc3cccnc3)nn2CC2CC2)C1 : 3.509%
* COc1cc(C2CC(=O)Oc3cc(C)[nH]c(=O)c32)ccc1O (stereo not shown) : 20.51%
* CC(NC(N)=O)C(=O)N(C)CCCc1cc(-c2ccccc2)no1 (stereo not shown) : 9.231%
* Cc1cccc(C(C(=O)NCc2nc(-c3cccnc3)no2)N(C)C)c1 (stereo not shown) : 18.31%

Source: ChEMBL document CHEMBL3988442, “University of Dundee, Small-Polar-MMV Screening Library” (2021).